PubChem BioAssay AID1259308 – NCATS, 2017
The deposit covers about 59,000 reagents; this is a part drawn at random. In the full data, about 1,510 (2.6%) got an active call. 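Calls use total luciferase alone and ignore viability, so some active siRNAs may act by altering cell number.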 A number with no mark means an inactive call. The numbers tell different reagents against one gene apart. Not all columns of the deposit are shown. Reagent sequences are not shown.

Assay: 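Knock-downs that increase output of a recombinant reporter protein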 (primary screen)
Cells: human HEK293 embryonic kidney cells stably expressing firefly luciferase (HEK-CMV-Luc2-Hygro)
Reagent: single siRNA against human genes, 0.8 pmol siRNA per well
Duration: 72 h
Measurement: 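Luciferase light (ONE-Glo) measured on one replicate plate set and viability (CellTiter-Glo) on the other, scaled to a negative control siRNA, with robust z-scores and luciferase per cell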
Reading the numbers: total luciferase, z-score and total luciferase, % of control: higher = more reporter protein produced; luciferase per cell, z-score: higher = more reporter output per viable cell
Call rule: 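An siRNA counts as active if its total luciferase robust z-score exceeds 3; genes with two or more such siRNAs out of three were retested with fresh siRNAs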
Meaning of the calls: active = raised luciferase; inactive = no rise

target | siRNA no. | total luciferase, z-score | total luciferase, % of control | luciferase per cell, z-score
FAS | 1 | 0.0766 | 83.4 | -0.00849
FAS | 2 | -0.592 | 70.1 | -0.727
FAS | 3 | -1.38 | 54.4 | -2.01
HSF2BP | 1 | 0.878 | 99.4 | 1.94
HSF2BP | 2 | -0.1 | 79.9 | -0.527
HSF2BP | 3 | 0.862 | 99 | 0.139
ARHGEF10 | 1 | 2.52 | 132 | 2.14
ARHGEF10 | 2 | -0.538 | 71.2 | 1.85
ARHGEF10 | 3 | -0.796 | 66 | -1.27
TMEM168 | 1 | 0.433 | 90.5 | 0.107
TMEM168 | 2 | -0.399 | 73.9 | -1.12
TMEM168 | 3 | 0.186 | 85.6 | -0.283
KDM4D | 1 | 3.38 (active) | 149 | 1.43
KDM4D | 2 | 0.478 | 91.4 | 0.466
KDM4D | 3 | 1.36 | 109 | 0.24
HMGXB4 | 1 | -1.61 | 49.8 | -1.53
HMGXB4 | 2 | -1.21 | 57.8 | -0.965
HMGXB4 | 3 | 1.61 | 114 | 1.24
H2AC14 | 1 | -0.454 | 72.9 | -0.202
H2AC14 | 2 | -3.37 | 15 | -6.57
H2AC14 | 3 | -0.8 | 66 | -1.61
PM20D1 | 1 | 1.11 | 104 | 0.74
PM20D1 | 2 | -0.337 | 75.2 | 0.0455
PM20D1 | 3 | -1.26 | 56.8 | -1.13
TMEM130 | 1 | 1.45 | 111 | 2.12
TMEM130 | 2 | -0.425 | 73.4 | -0.174
TMEM130 | 3 | -0.983 | 62.3 | -0.645
CHRNB3 | 1 | 0.291 | 87.7 | 0.105
CHRNB3 | 2 | -0.292 | 76.1 | -0.562
CHRNB3 | 3 | 0.793 | 97.7 | -0.293
CEP78 | 1 | -0.277 | 76.4 | -0.151
CEP78 | 2 | 0.264 | 87.1 | -0.709
CEP78 | 3 | -0.657 | 68.8 | -0.936
TDRD7 | 1 | 0.395 | 89.7 | -0.158
TDRD7 | 2 | -2.4 | 34.2 | -1.27
TDRD7 | 3 | -0.00255 | 81.8 | -0.435
USP9X | 1 | 1.76 | 117 | 1.21
USP9X | 2 | 0.181 | 85.5 | -0.0598
USP9X | 3 | 0.0878 | 83.6 | 0.515
PTPN1 | 1 | 0.53 | 92.4 | 0.792
PTPN1 | 2 | 0.52 | 92.2 | -0.26
PTPN1 | 3 | 0.278 | 87.4 | -0.253
FN3K | 1 | 2.32 | 128 | 1.58
FN3K | 2 | -0.209 | 77.7 | -0.149
FN3K | 3 | -0.85 | 65 | -0.427
LOXHD1 | 1 | 1.02 | 102 | 0.747
LOXHD1 | 2 | 0.451 | 90.9 | -0.14
LOXHD1 | 3 | -0.15 | 78.9 | -0.766
PJA1 | 1 | -0.242 | 77.1 | 0.0598
PJA1 | 2 | 0.95 | 101 | 2.14
PJA1 | 3 | -0.606 | 69.8 | -0.867
PMEL | 1 | -0.819 | 65.6 | -0.569
PMEL | 2 | 1.51 | 112 | 1.83
PMEL | 3 | -1.02 | 61.5 | 0.106
TRIM9 | 1 | -0.109 | 79.7 | -0.701
TRIM9 | 2 | -0.85 | 65 | -1.27
TRIM9 | 3 | 0.234 | 86.5 | 0.13

Quoted from the entries so far for reference:
target | siRNA no. | total luciferase, z-score | total luciferase, % of control | luciferase per cell, z-score
HMGXB4 | 3 | 1.61 | 114 | 1.24
H2AC14 | 1 | -0.454 | 72.9 | -0.202
H2AC14 | 2 | -3.37 | 15 | -6.57
H2AC14 | 3 | -0.8 | 66 | -1.61
PM20D1 | 1 | 1.11 | 104 | 0.74
PM20D1 | 2 | -0.337 | 75.2 | 0.0455
